Measured data: PubChem BioAssay AID1224829 (NIAID, 2016)

Aim: 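Genes needed for LPS-driven NF-kappaB p65 nuclear entry in mouse macrophages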 (follow-up of hits)
Cell system: mouse RAW264.7 G9 macrophage reporter cells
Reagent: single siRNA against mouse genes, 100 nM
Duration: 2 days of siRNA knock-down, then 40 min of LPS before fixing
Challenge: LPS (Salmonella minnesota R595) at 10 ng/ml
Read-out: 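High-content images after 40 min LPS exposure; GFP-p65 nucleus to surrounding ring signal ratio, normalised to plate median and non-targeting control wells, expressed as z-score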
Reading the numbers: p65 translocation z-score and gene median z-score, per vendor: higher = more nuclear NF-kappaB p65 after LPS
Active means: 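Active means the replicate-mean z-score lies beyond plus or minus 2, in either direction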
Calls: active = changed p65 translocation (either direction); inactive = no clear change
This is an unselected part of about 3,800 reagents. 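Calls cover raised and lowered translocation; gene median uses one vendor's three siRNAs; qiagen siRNAs acted more weakly than ambion siRNAs.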 The numbers tell different reagents against one gene apart. No sequences are given here.

| gene | siRNA no. | siRNA vendor or control pool | p65 translocation z-score, replicate mean | p65 translocation z-score, replicate 1 | p65 translocation z-score, replicate 2 | gene median z-score, per vendor | outcome |
| --- | --- | --- | --- | --- | --- | --- | --- |
| Supt6 | 1 | ambion single siRNA | 1.05 | 2.19 | -0.0909 | -0.435 | inactive |
| Supt6 | 2 | ambion single siRNA | -0.435 | -0.553 | -0.317 | -0.435 | inactive |
| Supt6 | 3 | ambion single siRNA | -4.58 | -3.32 | -5.85 | -0.435 | active |
| Supt6 | 4 | qiagen single siRNA | -7.23 | -7.23 | – | -6.53 | active |
| Supt6 | 5 | qiagen single siRNA | -6.53 | -6.53 | – | -6.53 | active |
| Supt6 | 6 | qiagen single siRNA | -4.99 | -4.99 | – | -6.53 | active |
